Source: publication PMC2727948
Numbering of substitutions follows the chain as printed. No constants are given. Whether binding was seen depends on the method and setting. Some results given as binding are weak or reduced against the parent protein; the word gives no strength. Sequences can lack the tags named with a protein.

T1: DBD-DnaD23T148M (DnaD with A166T and T148M, fused to the DNA binding domain of Gal4) (B. subtilis) (UniProt P39787)
T1 sequence: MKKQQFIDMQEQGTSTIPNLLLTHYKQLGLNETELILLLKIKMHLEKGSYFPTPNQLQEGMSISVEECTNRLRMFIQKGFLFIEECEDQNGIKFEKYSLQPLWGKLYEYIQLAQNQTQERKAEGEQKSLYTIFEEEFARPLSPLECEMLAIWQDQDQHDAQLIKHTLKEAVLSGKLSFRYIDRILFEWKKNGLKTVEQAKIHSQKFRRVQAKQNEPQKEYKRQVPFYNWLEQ

T2: DBD-DnaD23W188L (DnaD with A166T and W188L, fused to the DNA binding domain of Gal4) (B. subtilis) (UniProt P39787)
T2 sequence: T1 sequence with M148T, W188L

T3: DBD-DnaD23Δ154-155 (DnaD with A166T and the deletion of amino acids 154-155, fused to the DNA binding domain of Gal4) (B. subtilis) (UniProt P39787)
T3 sequence: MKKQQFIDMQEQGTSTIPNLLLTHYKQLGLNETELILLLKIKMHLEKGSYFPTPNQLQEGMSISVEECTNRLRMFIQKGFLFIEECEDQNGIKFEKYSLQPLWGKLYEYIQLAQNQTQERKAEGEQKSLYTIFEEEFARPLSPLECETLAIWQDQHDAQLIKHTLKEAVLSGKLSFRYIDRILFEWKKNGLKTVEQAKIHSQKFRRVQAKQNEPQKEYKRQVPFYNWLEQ

T4: DBD-DnaD (wild type DnaD fused to the DNA binding domain of Gal4) (B. subtilis), P39787
T4 chain: T1 sequence with M148T, T166A

B1: AD-DnaB (wild type DnaB fused to the activation domain of Gal4) (protein, UniProt P07908 1-472)
chain: MADYWKDVLPVDPYVVKSRSMLQDIDRQIITQLYQPLIGPVAFSLYMTLWGELEQNRLWGGESTHRQLMGMTQSNLKTIHQEQGKLEGIGLLKVYMKESERQERLFIYELLPPLRPNEFFEDGMLNVFLYNRVGKTKYQQLKQFFTHPAISEDAKDITRPFNHAFESLQPSEWKLTSDMEETVRLAEGSEYTSVGQSPSYTITEDVFDFDLFLAGLSETMIPRKAMTQQVRDTIKKLSYLYGIDPLQMQNVVMSAIDERDVITTEALRKAASDWYQIERNGQLPDLVEKTQPVHLREGEQPAEEDSLDGKLIALLEAISPKKLLQDIADGTEPSKADLKIIEEIMFEQKLEPGVTNVLIYYVMLKTDMKLSKNYIQKIASHWARKKVKTVREAMKLAIEENRQYLEWAEGKTKSSKRNQKVIREEKLPDWMTEKETASDSESGQQKLHPQDLEEQKKKMMEEMQKLKKYSAY
B2: AD-DnaB (wild type DnaB fused to the activation domain of Gal4), P07908 1-472 (protein)
chain: B1 chain

What was measured:
Assay in all cases: two-hybrid; yeast two-hybrid in strain DWY112: DnaB fused to the Gal4 activation domain, DnaD forms fused to the Gal4 DNA binding domain (pGBDU-C3); interaction drives ADE2, read as growth on medium lacking adenine
[1] = target: T1, DBD-DnaD23T148M (DnaD with A166T and T148M, fused to the DNA binding domain of Gal4) (B. subtilis)
[2] = target: T2, DBD-DnaD23W188L (DnaD with A166T and W188L, fused to the DNA binding domain of Gal4) (B. subtilis)
[3] = target: T3, DBD-DnaD23Δ154-155 (DnaD with A166T and the deletion of amino acids 154-155, fused to the DNA binding domain of Gal4) (B. subtilis)
[4] = target: T4, DBD-DnaD (wild type DnaD fused to the …); conditions: remark: other sources report otherwise

Binder | binding [1] | binding [2] | binding [3] | binding [4]
B1 | no binding | no binding | binds | –
B2 | – | – | – | no binding
